From the supplement of paper PMC10849652
This is one part of the list.

Protein sequences, listed by entry. Tags and fused reporters are not part of them. Lines headed by an entry give the natural chain unless they say otherwise; changes in a name come on top.
UniProt O75116: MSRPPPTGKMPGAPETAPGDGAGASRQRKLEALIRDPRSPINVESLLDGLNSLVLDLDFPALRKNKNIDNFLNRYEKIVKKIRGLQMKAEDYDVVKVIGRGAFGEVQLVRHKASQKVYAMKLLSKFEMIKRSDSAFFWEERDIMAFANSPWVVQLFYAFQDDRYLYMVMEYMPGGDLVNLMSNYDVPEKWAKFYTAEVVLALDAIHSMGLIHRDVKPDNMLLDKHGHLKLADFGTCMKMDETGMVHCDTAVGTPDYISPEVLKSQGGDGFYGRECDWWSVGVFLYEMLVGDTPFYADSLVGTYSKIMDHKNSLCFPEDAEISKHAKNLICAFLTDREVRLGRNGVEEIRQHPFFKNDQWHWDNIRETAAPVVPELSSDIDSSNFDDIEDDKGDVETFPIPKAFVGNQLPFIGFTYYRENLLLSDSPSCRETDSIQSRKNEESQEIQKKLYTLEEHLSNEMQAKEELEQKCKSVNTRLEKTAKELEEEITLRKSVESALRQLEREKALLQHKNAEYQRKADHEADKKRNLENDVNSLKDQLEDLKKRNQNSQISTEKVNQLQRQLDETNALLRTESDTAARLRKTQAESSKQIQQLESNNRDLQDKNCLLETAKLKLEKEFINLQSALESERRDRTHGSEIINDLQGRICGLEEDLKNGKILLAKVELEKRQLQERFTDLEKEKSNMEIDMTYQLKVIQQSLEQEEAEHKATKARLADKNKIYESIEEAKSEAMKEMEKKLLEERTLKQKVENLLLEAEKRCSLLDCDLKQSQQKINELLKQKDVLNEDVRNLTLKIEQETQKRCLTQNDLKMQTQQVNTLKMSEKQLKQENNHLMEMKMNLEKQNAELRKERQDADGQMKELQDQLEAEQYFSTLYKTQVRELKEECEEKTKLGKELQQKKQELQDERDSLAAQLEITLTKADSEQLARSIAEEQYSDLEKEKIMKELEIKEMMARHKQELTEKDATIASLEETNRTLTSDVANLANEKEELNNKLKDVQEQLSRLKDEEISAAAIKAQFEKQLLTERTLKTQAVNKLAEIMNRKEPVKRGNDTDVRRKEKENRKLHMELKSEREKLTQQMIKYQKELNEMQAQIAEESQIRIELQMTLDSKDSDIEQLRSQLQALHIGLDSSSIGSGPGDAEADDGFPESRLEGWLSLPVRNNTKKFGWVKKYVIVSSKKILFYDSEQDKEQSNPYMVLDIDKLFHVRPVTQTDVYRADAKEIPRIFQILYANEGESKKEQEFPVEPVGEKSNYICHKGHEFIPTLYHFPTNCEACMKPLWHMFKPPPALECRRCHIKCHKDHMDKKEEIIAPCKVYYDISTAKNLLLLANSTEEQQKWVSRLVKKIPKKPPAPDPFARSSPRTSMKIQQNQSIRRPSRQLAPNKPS
UniProt Q86WX3: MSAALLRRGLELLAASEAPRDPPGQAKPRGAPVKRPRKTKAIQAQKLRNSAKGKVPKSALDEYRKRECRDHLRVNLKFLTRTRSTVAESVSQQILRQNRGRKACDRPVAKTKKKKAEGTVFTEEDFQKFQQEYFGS
UniProt P05386, whole entry, looked up: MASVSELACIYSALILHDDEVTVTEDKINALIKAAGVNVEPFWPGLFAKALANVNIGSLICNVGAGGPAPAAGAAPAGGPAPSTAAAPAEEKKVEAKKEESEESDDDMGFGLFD
UniProt Q7LG56, whole entry, looked up: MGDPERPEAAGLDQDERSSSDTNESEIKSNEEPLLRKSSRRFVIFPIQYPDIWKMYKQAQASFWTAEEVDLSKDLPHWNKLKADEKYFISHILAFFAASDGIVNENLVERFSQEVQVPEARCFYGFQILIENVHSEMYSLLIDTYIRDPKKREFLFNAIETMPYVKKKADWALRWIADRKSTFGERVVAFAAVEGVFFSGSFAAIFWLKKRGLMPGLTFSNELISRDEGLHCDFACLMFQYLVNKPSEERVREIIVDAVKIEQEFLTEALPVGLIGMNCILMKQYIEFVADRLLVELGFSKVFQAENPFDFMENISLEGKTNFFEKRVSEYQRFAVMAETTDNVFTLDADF

How the values were obtained:
Test in all cases: log2 fold change, soluble protein after heating vs DMSO (PISA); higher = thermal stabilisation; K562 cells, 10 uM, 30 min; active = over 0.2 and 3.5 SD of the protein, either way, in both replicates (recomputed)
[1] = compound: Cc1ccc(NC(=O)c2ccc(CN3CC[C@H](N(C)C)C3)c(C(F)(F)F)c2)cc1Nc1nccc(-c2cncnc2)n1 [bafetinib]
In short: (§1)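 K562 cells at 2×10^6 cells/mL were treated for 30 min with 10 μM compound, and aliquots were heated for 3 min over 48°C-58°C before pooling. Extraction used PBS with 0.5% NP-40 at 4°C, and soluble protein was the supernatant after 21,000xg for 90 min, measured by TMTpro 16plex LC-MS/MS with channel sums equalised. Thermal stability values, relative to control samples and from duplicates, are log2 fold changes.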

[2] = compound: Cc1cccc(CC(=O)N2CCc3c2ccc(-c2cn(C)c4ncnc(N)c24)c3F)n1
In short: as §1

[3] = compound: Cc1cn(-c2cc(NC(=O)c3ccc(C)c(Nc4nccc(-c5cccnc5)n4)c3)cc(C(F)(F)F)c2)cn1 [nilotinib]
In short: as §1

[4] = compound: Cc1nc(Nc2n[nH]c3c2CN(C(=O)N[C@H](CN(C)C)c2ccccc2)C3(C)C)c2sccc2n1
In short: as §1

[5] = compound: Cc1nc(Nc2ncc(C(=O)Nc3c(C)cccc3Cl)s2)cc(N2CCN(CCO)CC2)n1 [dasatinib]
In short: as §1

[6] = compound: Cc1ncc(-c2ccnc(Nc3ccc(S(C)(=O)=O)cc3)n2)n1C(C)C
In short: as §1

[7] = compound: Cn1cc(-c2ccc3c(c2)CCN3C(=O)Cc2cccc(C(F)(F)F)c2)c2c(N)ncnc21
In short: as §1

[8] = compound: Cn1cc(-c2ccc3nnc(C(F)(F)c4ccc5ncccc5c4)n3n2)cn1
In short: as §1

[9] = compound: Cn1cncc1[C@@](N)(c1ccc(Cl)cc1)c1ccc2c(c1)c(-c1cccc(Cl)c1)cc(=O)n2C [tipifarnib]
In short: as §1

[10] = compound: FC(F)(F)c1ccc(/C=C/c2nc(COc3ccc(CCCCn4ccnn4)cc3)co2)cc1 [mubritinib]
In short: as §1

[11] = compound: NC(=O)Nc1cc(-c2cccc(F)c2)sc1C(=O)N[C@H]1CCCNC1
In short: as §1

[12] = compound: NC(=O)c1cnc(N[C@@H]2CCCC[C@@H]2N)nc1Nc1cccc(-n2nccn2)c1
In short: as §1

[13] = compound: NC1(c2ccc(-c3nc4ccn5c(=O)[nH]nc5c4cc3-c3ccccc3)cc2)CCC1
In short: as §1

[14] = compound: NCC(=O)Nc1ccc(-n2nc(C(F)(F)F)cc2-c2ccc3c(ccc4ccccc43)c2)cc1
In short: as §1

[15] = compound: Nc1ccccc1NC(=O)c1ccc(CNC(=O)OCc2cccnc2)cc1 [entinostat]
In short: as §1

[16] = compound: O=C(CCCCCCC(=O)Nc1ccccc1)NO [vorinostat]
In short: as §1

[17] = compound: O=C(CCCCCCNC(=O)c1cnc(N(c2ccccc2)c2ccccc2Cl)nc1)NO [citarinostat]
In short: as §1

[18] = compound: O=C(O)c1ccc2c(c1)nc(Nc1cccc(Cl)c1)c1ccncc12 [silmitasertib]
In short: as §1

[19] = compound: O=C1NC(=O)C(c2cnc3ccccn23)=C1c1cn2c3c(cc(F)cc13)CN(C(=O)N1CCCCC1)CC2
In short: as §1

[20] = compound: c1cc(OCCN2CCCCC2)cc(-c2n[nH]c3ccc(-c4nnc[nH]4)cc23)c1
In short: as §1

Measured: log2 fold change

RPS27L (UniProt Q71UM5)
inactive: [1] 0.048 | [2] -0.019 | [3] 0.02 | [4] 0.137 | [5] -0.015 | [6] -0.021 | [7] -0.039 | [8] -0.042 | [9] -0.039 | [10] -0.014 | [11] 0.02 | [12] 0.05 | [13] 0.054 | [14] 0.048 | [15] -0.023 | [16] 0.107 | [17] -0.026 | [18] 0.005 | [19] 0.085 | [20] -0.109

RPL37A (UniProt P61513)
inactive: [1] 0.481 | [2] -0.013 | [3] 0.084 | [4] 0.326 | [5] 0.283 | [6] -0.024 | [7] -0.592 | [8] -0.179 | [9] 0.256 | [10] -0.368 | [11] 0.132 | [12] 0.241 | [13] 0.512 | [14] 0.39 | [15] -0.129 | [16] -0.026 | [17] -0.216 | [18] 0.085 | [19] 0.171 | [20] -0.328

RPL30 (UniProt P62888)
inactive: [1] 0.542 | [2] 0.003 | [3] 0.029 | [4] 0.227 | [5] 0.253 | [6] -0.019 | [7] -0.538 | [8] -0.254 | [9] 0.383 | [10] -0.375 | [11] 0.077 | [12] 0.175 | [13] 0.502 | [14] 0.294 | [15] -0.145 | [16] -0.035 | [17] -0.209 | [18] 0.166 | [19] 0.292 | [20] -0.33

2 entries picked at random from the list so far:
RPL30 (UniProt P62888)
inactive: [1] 0.542 | [2] 0.003 | [3] 0.029 | [4] 0.227 | [5] 0.253 | [6] -0.019 | [7] -0.538 | [8] -0.254 | [9] 0.383 | [10] -0.375 | [11] 0.077 | [12] 0.175 | [13] 0.502 | [14] 0.294 | [15] -0.145 | [16] -0.035 | [17] -0.209 | [18] 0.166 | [19] 0.292 | [20] -0.33

RPS27L (UniProt Q71UM5)
inactive: [1] 0.048 | [2] -0.019 | [3] 0.02 | [4] 0.137 | [5] -0.015 | [6] -0.021 | [7] -0.039 | [8] -0.042 | [9] -0.039 | [10] -0.014 | [11] 0.02 | [12] 0.05 | [13] 0.054 | [14] 0.048 | [15] -0.023 | [16] 0.107 | [17] -0.026 | [18] 0.005 | [19] 0.085 | [20] -0.109

Continuation:

RPL13A (UniProt P40429)
inactive: [1] 0.597 | [2] 0.018 | [3] 0.012 | [4] 0.273 | [5] 0.293 | [6] -0.04 | [7] -0.576 | [8] -0.296 | [9] 0.345 | [10] -0.35 | [11] 0.23 | [12] 0.206 | [13] 0.439 | [14] 0.322 | [15] -0.144 | [16] -0.053 | [17] -0.218 | [18] 0.242 | [19] 0.296 | [20] -0.397

RPS15A (UniProt P62244)
inactive: [1] 0.369 | [2] 0.011 | [3] 0.039 | [4] 0.25 | [5] 0.097 | [6] -0.058 | [7] -0.293 | [8] -0.103 | [9] 0.051 | [10] -0.132 | [11] 0.074 | [12] 0.225 | [13] 0.255 | [14] 0.133 | [15] -0.087 | [16] -0.002 | [17] -0.127 | [18] 0.07 | [19] 0.158 | [20] -0.255

RPS18 (UniProt P62269)
inactive: [1] 0.214 | [2] -0.015 | [3] -0.001 | [4] 0.198 | [5] 0.069 | [6] -0.054 | [7] -0.088 | [8] -0.001 | [9] 0.031 | [10] -0.022 | [11] -0.032 | [12] 0.08 | [13] 0.122 | [14] 0.049 | [15] -0.083 | [16] 0.023 | [17] -0.093 | [18] 0 | [19] 0.069 | [20] -0.145

RPL26L1 (UniProt Q9UNX3)
inactive: [1] 0.379 | [2] -0.019 | [3] 0.046 | [4] 0.231 | [5] 0.18 | [6] -0.026 | [7] -0.19 | [8] -0.125 | [9] 0.162 | [10] -0.21 | [11] 0.157 | [12] 0.169 | [13] 0.415 | [14] 0.141 | [15] -0.063 | [16] 0 | [17] -0.184 | [18] -0.048 | [19] 0.216 | [20] -0.165

RPS2 (UniProt P15880)
inactive: [1] 0.284 | [2] 0 | [3] 0 | [4] 0.198 | [5] 0.13 | [6] -0.035 | [7] -0.216 | [8] -0.105 | [9] 0.077 | [10] -0.095 | [11] 0.035 | [12] 0.081 | [13] 0.195 | [14] 0.089 | [15] -0.036 | [16] 0.001 | [17] -0.079 | [18] 0.01 | [19] 0.086 | [20] -0.189

RPL15 (UniProt P61313)
inactive: [1] 0.565 | [2] 0.017 | [3] -0.008 | [4] 0.217 | [5] 0.374 | [6] -0.058 | [7] -0.674 | [8] -0.293 | [9] 0.494 | [10] -0.353 | [11] 0.189 | [12] 0.167 | [13] 0.48 | [14] 0.358 | [15] -0.143 | [16] -0.038 | [17] -0.223 | [18] 0.203 | [19] 0.262 | [20] -0.408

ROCK2 (UniProt O75116)
inactive: [1] -0.033 | [2] -0.006 | [3] -0.05 | [4] -0.202 | [5] -0.064 | [6] 0.009 | [7] -0.091 | [8] 0.014 | [9] -0.008 | [10] 0.013 | [11] 0.043 | [12] -0.044 | [13] -0.106 | [14] -0.017 | [15] 0.031 | [16] 0.08 | [17] 0.013 | [18] 0.096 | [19] 0.017 | [20] 0.06

RPS14 (UniProt P62263)
inactive: [1] 0.265 | [2] -0.061 | [3] 0.029 | [4] 0.184 | [5] -0.011 | [6] -0.047 | [7] -0.081 | [8] -0.091 | [9] 0.07 | [10] -0.05 | [11] 0.056 | [12] 0.142 | [13] 0.149 | [14] 0.08 | [15] -0.033 | [16] -0.106 | [17] -0.089 | [18] -0.041 | [19] 0.209 | [20] -0.069

RPL3 (UniProt P39023)
inactive: [1] 0.574 | [2] -0.001 | [3] 0.009 | [4] 0.305 | [5] 0.362 | [6] -0.04 | [7] -0.586 | [8] -0.258 | [9] 0.369 | [10] -0.361 | [11] 0.21 | [12] 0.164 | [13] 0.455 | [14] 0.269 | [15] -0.102 | [16] -0.03 | [17] -0.228 | [18] 0.208 | [19] 0.273 | [20] -0.372

RPS19BP1 (UniProt Q86WX3)
inactive: [1] 0.065 | [2] -0.023 | [3] 0.008 | [4] 0.193 | [5] 0.142 | [6] -0.027 | [7] -0.278 | [8] -0.126 | [9] 0.154 | [10] -0.16 | [11] 0.042 | [12] 0.107 | [13] 0.176 | [14] 0.002 | [15] 0.023 | [16] -0.045 | [17] -0.027 | [18] 0.168 | [19] 0.133 | [20] -0.087

RPS23 (UniProt P62266)
inactive: [1] 0.399 | [2] 0.02 | [3] -0.007 | [4] 0.222 | [5] 0.164 | [6] -0.049 | [7] -0.343 | [8] -0.012 | [9] 0.127 | [10] -0.177 | [11] 0.154 | [12] 0.145 | [13] 0.407 | [14] 0.169 | [15] -0.08 | [16] 0 | [17] -0.086 | [18] 0.117 | [19] 0.181 | [20] -0.237

RPLP1 (UniProt P05386)
inactive: [1] 0.39 | [2] -0.09 | [3] 0.104 | [4] 0.191 | [5] 0.216 | [6] -0.08 | [7] -0.385 | [8] -0.155 | [9] 0.525 | [10] -0.268 | [11] 0.086 | [12] 0.286 | [13] 0.443 | [14] 0.179 | [15] -0.128 | [16] -0.104 | [17] -0.23 | [18] 0.229 | [19] 0.094 | [20] -0.531

RRM2B isoform 6 (UniProt Q7LG56)
inactive: [1] -0.024 | [2] -0.04 | [3] -0.003 | [4] 0.028 | [5] 0.068 | [6] -0.006 | [7] 0.026 | [8] 0.053 | [9] 0.09 | [10] 0.032 | [11] -0.019 | [12] -0.035 | [13] -0.035 | [14] 0.015 | [15] -0.031 | [16] -0.058 | [17] 0.025 | [18] -0.003 | [19] -0.087 | [20] -0.016
